The supplement of paper PMC10849652
This is one part of the list.

Amino acid sequences for entries named in this document (tags omitted). A change or cut given only in a name is not applied to a line headed by its entry.
UniProt Q9HAU0: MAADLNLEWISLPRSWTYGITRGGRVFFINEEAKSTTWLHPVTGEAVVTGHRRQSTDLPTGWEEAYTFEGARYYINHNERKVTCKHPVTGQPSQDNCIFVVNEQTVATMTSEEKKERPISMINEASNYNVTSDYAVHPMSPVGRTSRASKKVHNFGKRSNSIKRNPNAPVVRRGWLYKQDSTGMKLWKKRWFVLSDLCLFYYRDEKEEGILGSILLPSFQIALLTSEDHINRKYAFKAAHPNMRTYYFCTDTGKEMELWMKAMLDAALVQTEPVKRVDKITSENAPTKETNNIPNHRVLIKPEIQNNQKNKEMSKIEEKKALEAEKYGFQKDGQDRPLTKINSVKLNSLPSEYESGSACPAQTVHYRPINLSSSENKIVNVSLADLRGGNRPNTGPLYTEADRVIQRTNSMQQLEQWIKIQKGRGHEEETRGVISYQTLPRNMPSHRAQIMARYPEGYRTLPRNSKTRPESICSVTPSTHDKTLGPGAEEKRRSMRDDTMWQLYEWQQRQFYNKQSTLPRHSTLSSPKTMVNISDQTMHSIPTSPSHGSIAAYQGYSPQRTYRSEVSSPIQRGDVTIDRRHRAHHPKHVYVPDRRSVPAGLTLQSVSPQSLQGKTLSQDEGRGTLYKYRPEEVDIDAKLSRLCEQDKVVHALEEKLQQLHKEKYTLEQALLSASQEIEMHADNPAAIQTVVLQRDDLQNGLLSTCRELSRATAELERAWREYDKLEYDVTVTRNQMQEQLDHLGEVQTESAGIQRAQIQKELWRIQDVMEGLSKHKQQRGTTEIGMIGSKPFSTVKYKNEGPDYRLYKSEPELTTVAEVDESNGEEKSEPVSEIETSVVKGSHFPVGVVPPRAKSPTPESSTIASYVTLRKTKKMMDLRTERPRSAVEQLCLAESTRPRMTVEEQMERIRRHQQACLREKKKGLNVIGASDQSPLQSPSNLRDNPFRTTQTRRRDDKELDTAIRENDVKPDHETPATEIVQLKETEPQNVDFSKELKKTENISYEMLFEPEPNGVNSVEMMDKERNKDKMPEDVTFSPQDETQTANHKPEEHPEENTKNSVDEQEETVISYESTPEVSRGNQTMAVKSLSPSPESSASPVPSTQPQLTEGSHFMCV
UniProt O15067: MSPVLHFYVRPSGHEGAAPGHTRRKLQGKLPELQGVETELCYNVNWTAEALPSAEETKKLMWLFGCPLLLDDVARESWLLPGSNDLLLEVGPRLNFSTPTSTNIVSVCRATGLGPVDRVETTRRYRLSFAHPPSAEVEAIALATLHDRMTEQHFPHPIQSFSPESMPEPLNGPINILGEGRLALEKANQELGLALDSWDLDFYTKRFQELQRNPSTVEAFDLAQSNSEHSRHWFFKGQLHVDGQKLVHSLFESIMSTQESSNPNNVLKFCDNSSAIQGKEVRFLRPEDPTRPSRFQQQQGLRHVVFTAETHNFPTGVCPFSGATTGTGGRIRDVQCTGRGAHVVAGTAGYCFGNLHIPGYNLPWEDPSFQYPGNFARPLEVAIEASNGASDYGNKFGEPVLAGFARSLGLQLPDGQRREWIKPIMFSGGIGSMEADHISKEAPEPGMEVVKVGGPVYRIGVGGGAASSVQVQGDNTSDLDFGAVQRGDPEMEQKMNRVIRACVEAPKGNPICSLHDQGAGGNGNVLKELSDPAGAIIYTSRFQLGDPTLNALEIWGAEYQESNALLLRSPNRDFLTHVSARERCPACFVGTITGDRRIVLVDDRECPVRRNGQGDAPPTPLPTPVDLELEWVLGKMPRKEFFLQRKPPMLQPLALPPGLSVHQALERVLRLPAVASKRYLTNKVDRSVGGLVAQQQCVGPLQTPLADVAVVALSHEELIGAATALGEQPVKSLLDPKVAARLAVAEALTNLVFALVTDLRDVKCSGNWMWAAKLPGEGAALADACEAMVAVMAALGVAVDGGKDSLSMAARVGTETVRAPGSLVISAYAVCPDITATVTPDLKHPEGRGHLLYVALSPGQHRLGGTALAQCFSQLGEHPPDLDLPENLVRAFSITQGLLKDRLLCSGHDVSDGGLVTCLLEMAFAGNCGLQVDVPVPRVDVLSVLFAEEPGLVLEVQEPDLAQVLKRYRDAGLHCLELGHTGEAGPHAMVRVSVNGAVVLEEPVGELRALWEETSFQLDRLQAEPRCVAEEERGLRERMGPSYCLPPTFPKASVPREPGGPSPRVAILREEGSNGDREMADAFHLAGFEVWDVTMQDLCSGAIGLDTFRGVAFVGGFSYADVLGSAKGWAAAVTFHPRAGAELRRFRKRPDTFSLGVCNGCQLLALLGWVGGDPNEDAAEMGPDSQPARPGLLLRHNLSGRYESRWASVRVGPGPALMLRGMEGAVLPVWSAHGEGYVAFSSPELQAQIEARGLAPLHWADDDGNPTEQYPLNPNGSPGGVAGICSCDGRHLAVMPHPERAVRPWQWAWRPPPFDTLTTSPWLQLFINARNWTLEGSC
UniProt Q9NWS0, whole entry, looked up: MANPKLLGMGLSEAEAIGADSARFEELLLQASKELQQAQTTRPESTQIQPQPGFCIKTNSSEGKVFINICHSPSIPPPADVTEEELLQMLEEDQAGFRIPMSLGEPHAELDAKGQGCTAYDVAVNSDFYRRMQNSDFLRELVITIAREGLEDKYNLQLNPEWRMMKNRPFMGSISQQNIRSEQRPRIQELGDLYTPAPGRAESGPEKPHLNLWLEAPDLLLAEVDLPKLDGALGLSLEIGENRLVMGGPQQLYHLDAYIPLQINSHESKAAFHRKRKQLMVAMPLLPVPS
UniProt P07205: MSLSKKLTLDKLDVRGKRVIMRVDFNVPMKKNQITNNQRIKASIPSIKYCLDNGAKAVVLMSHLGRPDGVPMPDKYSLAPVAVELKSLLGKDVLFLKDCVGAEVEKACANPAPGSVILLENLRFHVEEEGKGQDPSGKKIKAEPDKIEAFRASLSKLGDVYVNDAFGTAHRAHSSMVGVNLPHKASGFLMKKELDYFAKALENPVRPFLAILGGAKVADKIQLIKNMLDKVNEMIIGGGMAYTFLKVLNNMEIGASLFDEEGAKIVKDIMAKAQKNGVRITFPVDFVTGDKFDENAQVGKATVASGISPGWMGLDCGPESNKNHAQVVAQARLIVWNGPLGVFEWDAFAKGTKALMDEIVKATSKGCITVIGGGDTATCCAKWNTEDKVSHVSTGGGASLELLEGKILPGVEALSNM
UniProt Q92521: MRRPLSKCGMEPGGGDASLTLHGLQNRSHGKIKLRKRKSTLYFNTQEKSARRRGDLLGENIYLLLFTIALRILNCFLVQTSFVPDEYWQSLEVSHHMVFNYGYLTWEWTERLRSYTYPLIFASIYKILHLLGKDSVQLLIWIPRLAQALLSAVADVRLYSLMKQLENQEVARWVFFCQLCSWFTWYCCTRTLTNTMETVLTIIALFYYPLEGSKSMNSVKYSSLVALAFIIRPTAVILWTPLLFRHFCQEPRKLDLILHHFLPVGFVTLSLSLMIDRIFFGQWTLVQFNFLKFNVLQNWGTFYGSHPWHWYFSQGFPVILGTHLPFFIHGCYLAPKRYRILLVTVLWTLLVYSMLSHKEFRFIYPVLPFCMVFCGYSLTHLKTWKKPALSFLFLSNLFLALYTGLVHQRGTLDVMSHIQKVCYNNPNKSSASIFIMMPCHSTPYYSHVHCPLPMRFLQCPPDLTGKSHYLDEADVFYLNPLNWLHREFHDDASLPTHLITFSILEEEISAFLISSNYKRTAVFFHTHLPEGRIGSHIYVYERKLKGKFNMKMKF
UniProt Q8NDX5: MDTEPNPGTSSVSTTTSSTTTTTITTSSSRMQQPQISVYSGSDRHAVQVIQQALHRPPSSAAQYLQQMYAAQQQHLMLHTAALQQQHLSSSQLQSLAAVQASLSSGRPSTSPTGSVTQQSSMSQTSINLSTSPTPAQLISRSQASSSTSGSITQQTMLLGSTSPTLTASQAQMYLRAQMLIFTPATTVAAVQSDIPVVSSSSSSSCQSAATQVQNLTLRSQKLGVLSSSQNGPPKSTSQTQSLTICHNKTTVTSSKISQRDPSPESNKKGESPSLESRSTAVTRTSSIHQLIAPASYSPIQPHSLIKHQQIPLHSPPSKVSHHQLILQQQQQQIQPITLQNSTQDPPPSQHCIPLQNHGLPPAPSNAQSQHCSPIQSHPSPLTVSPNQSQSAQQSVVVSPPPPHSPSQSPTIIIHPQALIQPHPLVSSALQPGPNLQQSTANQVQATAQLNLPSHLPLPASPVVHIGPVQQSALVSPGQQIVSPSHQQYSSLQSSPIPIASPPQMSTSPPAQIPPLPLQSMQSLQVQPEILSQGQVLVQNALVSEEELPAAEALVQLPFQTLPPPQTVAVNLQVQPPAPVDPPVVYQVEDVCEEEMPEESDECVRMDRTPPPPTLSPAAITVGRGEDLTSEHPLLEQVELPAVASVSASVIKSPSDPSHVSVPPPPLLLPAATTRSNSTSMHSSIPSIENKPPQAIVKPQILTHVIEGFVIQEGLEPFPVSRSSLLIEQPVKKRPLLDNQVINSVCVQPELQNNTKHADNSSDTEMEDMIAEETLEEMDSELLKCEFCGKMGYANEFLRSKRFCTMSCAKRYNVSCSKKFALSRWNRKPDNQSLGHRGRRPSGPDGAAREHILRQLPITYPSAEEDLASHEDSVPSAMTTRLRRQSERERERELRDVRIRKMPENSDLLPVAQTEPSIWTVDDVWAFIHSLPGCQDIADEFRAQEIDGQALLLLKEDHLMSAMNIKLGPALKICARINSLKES
UniProt P07737, whole entry, looked up: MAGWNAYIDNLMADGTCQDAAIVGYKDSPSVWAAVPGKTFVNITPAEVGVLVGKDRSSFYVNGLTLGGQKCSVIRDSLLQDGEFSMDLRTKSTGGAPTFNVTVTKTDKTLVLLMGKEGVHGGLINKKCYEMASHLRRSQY
UniProt Q01970, whole entry, looked up: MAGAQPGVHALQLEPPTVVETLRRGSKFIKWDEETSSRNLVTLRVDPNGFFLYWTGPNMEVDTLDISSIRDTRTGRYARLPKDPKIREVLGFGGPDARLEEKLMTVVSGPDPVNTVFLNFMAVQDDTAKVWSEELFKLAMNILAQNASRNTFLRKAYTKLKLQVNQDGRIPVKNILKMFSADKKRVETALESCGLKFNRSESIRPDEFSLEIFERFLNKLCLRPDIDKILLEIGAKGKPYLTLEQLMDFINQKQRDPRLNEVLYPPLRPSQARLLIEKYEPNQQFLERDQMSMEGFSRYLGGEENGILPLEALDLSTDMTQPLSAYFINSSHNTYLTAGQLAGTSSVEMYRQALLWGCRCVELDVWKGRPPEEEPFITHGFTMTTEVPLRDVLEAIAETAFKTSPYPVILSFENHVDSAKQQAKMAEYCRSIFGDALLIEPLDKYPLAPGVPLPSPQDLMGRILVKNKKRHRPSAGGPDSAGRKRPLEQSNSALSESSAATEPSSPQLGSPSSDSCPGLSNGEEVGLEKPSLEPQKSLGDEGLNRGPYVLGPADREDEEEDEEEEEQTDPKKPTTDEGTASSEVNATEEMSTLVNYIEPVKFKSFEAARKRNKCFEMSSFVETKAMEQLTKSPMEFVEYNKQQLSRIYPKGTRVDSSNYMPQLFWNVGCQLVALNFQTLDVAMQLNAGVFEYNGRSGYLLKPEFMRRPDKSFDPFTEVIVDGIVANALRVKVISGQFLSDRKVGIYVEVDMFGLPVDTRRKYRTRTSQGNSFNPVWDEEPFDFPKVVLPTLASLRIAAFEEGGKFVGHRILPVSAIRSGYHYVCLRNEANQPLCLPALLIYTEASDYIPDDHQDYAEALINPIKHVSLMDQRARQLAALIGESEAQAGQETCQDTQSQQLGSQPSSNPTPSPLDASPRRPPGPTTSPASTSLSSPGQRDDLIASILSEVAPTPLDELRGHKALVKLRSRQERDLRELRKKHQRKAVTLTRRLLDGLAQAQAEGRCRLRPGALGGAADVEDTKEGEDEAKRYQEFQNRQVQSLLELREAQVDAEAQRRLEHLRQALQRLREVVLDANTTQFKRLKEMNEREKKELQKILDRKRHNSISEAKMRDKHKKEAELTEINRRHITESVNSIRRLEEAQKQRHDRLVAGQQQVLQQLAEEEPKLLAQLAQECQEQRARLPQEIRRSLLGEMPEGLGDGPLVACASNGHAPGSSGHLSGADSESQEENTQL
UniProt P08567: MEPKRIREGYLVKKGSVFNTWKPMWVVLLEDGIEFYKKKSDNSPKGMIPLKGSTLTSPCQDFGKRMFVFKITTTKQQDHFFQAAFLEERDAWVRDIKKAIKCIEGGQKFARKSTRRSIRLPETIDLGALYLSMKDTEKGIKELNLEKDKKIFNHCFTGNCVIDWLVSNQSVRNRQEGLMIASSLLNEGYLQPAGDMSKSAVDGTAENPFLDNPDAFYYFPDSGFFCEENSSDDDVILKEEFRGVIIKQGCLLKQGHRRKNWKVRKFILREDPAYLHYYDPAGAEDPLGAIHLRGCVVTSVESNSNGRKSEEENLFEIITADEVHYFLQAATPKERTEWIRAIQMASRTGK

Legend:
Experiment in all cases: log2 fold change, soluble protein after heating vs DMSO (PISA); higher = thermal stabilisation; K562 cells, 10 uM, 30 min; active = over 0.2 and 3.5 SD of the protein, either way, in both replicates (recomputed)
[1] = compound: C1=CC=C(C=C1)[C@H](COC2=CC3=C(C=C2)NC(=O)N3)NC(=O)C4=CC=CN(C4=O)CC5=CC(=C(C=C5)F)F
Outline: (§1)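 For each measurement, 10 μM compound was applied for 30 min to K562 cells at 2×10^6 cells/mL. Aliquots were heated for 3 min across 48°C-58°C, pooled, and extracted in PBS with 0.5% NP-40 at 4°C; the supernatant after 21,000xg for 90 min was soluble protein. This was quantified by TMTpro 16plex LC-MS/MS with channel sums equalised, and thermal stability was reported relative to control samples from duplicates, on a log2 fold-change scale.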

[2] = compound: CC1=C(SC2=C1C(=N[C@H](C3=NN=C(N32)C)CC(=O)N)C4=CC=C(C=C4)Cl)C
Outline: as §1

[3] = compound: CC1=C2C(=CC=C1)N=C(N(C2=O)C3=CC=CC=C3C)CN4C=NC5=C(N=CN=C54)N
Outline: as §1

[4] = compound: Cc1sc2c(c1C)C(c1ccc(Cl)cc1)=N[C@@H](CC(=O)OC(C)(C)C)c1nnc(C)n1-2
Outline: as §1

[5] = compound: c1ccc([C@@H]2C[C@H]2NC2CCNCC2)cc1
Outline: as §1

Measured: log2 fold change

PGRMC1 (UniProt O00264)
inactive: [1] 0.021 | [2] -0.063 | [3] -0.018 | [4] -0.027 | [5] 0.027

PLEKHA5 isoform 6 (UniProt Q9HAU0)
inactive: [2] 0.325 | [3] 0.092 | [4] 0.229 | [5] -0.002

PFAS (UniProt O15067)
inactive: [1] -0.08 | [2] 0.021 | [3] 0.144 | [4] 0.014 | [5] -0.065

PIH1D1 (UniProt Q9NWS0)
inactive: [1] 0 | [2] -0.003 | [3] 0.012 | [4] -0.019 | [5] 0.027

PGK2 (UniProt P07205)
inactive: [1] -0.1 | [2] 0.046 | [3] 0.153 | [4] 0.037 | [5] 0.034

PKM (UniProt P14618)
inactive: [1] -0.008 | [2] 0.032 | [3] 0.004 | [4] -0.005 | [5] 0.026

PKM isoform 2 (UniProt P14618)
inactive: [1] 0.063 | [3] -0.057 | [4] -0.046

PIP5K1C isoform 3 (UniProt O60331)
inactive: [1] 0.046 | [4] -0.149

Pulled one by one from the list above (two):
PIH1D1 (UniProt Q9NWS0)
inactive: [1] 0 | [2] -0.003 | [3] 0.012 | [4] -0.019 | [5] 0.027

PGK2 (UniProt P07205)
inactive: [1] -0.1 | [2] 0.046 | [3] 0.153 | [4] 0.037 | [5] 0.034

Next results:

PIGB (UniProt Q92521)
inactive: [2] 0.099 | [4] 0.034 | [5] 0.082

PHC3 isoform 7 (UniProt Q8NDX5)
inactive: [1] -0.023 | [2] -0.025 | [5] -0.075

PHF14 (UniProt O94880)
inactive: [3] -0.452 | [4] 0.09

PLD6 (UniProt Q8N2A8)
inactive: [3] 0.072

PFN1 (UniProt P07737)
inactive: [1] 0.004 | [2] 0.031 | [3] 0.027 | [4] -0.019 | [5] -0.014

PFN1 (UniProt I3L3D5)
inactive: [1] 0.068 | [2] -0.069 | [4] 0.194 | [5] -0.104

PLCB3 (UniProt Q01970)
inactive: [1] -0.019 | [2] -0.015 | [3] 0 | [4] -0.048 | [5] -0.062

PLEK (UniProt P08567)
inactive: [3] -0.118

PIAS4 (UniProt Q8N2W9)
inactive: [4] 0.129
